Laboratory results published in article PMC5656322, “BAK1 is involved in AtRALF1-induced inhibition of root cell expansion” (PLoS Genetics, 2017).
No constants are given. Whether binding was seen depends on the method and setting. Binding calls can cover weak binding; strength is not graded here. Tags and fused reporters may be left off the sequences shown.

Biological target: T1, AtRALF1 mature peptide fused to the GAL4 DNA-binding domain (AtRALF1-pGBKT7) (Arabidopsis thaliana) (UniProt Q9SRY3)
T1 sequence: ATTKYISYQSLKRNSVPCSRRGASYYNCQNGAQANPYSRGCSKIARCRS
Test: two-hybrid; RALF peptide fused to the GAL4 DNA-binding domain (pGBKT7) as bait, extracellular domains or truncations fused to the GAL4 activation domain (pGADT7); yeast AH109; growth on synthetic complete medium lacking leucine, tryptophan and histidine

binding | Substance
no binding | Extracellular domain of BRI1 fused to the GAL4 activation domain (BRI1-ECD, pGADT7) (Arabidopsis thaliana) (domain or fragment)
no binding | BAK1-ECD truncated protein 5: LRR5 + Prorich (Arabidopsis thaliana) (domain or fragment)
no binding | BAK1-ECD truncated protein 7: Leu zippers + LRR1 + LRR2 + LRR3 + LRR4 + LRR5 (Arabidopsis thaliana) (domain or fragment)
no binding | BAK1-ECD truncated protein 8: Leu zippers + LRR1 + LRR2 + LRR3 + LRR4 (Arabidopsis thaliana) (domain or fragment)
no binding | BAK1-ECD truncated protein 3: LRR3 + LRR4 + LRR5 + Prorich (Arabidopsis thaliana) (domain or fragment)

Further lines, the substance ahead of its results:

Substance | binding
BAK1-ECD truncated protein 4: LRR4 + LRR5 + Prorich (Arabidopsis thaliana) (domain or fragment) | no binding
BAK1-ECD truncated protein 12: Leu zippers (Arabidopsis thaliana) (domain or fragment) | no binding
BAK1-ECD truncated protein 2: LRR2 + LRR3 + LRR4 + LRR5 + Prorich (Arabidopsis thaliana) (domain or fragment) | no binding
BAK1-ECD truncated protein 10: Leu zippers + LRR1 + LRR2 (Arabidopsis thaliana) (domain or fragment) | binds
BAK1-ECD truncated protein 9: Leu zippers + LRR1 + LRR2 + LRR3 (Arabidopsis thaliana) (domain or fragment) | binds
BAK1-ECD truncated protein 1: LRR1 + LRR2 + LRR3 + LRR4 + LRR5 + Prorich (Arabidopsis thaliana) (domain or fragment) | no binding
BAK1-ECD truncated protein 6: Pro-rich (Arabidopsis thaliana) (domain or fragment) | no binding
BAK1-ECD truncated protein 11: Leu zippers + LRR1 (Arabidopsis thaliana) (domain or fragment) | no binding
